The target in the experiment is T1, GST fusion protein of the cytoplasmic amino terminus of rat NCC (amino acids 1-133) (rat) (UniProt P55018).
T1 sequence: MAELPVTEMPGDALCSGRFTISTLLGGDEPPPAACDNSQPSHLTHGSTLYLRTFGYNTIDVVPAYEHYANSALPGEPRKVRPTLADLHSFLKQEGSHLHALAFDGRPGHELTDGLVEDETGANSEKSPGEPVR
In words: pull-down; GST-(N) NCC or GST alone on glutathione-agarose beads with 2–10 μg recombinant phosphatase; 12- to 18-hour incubation in PBS with 0.5 mM TCEP at 4°C; bound protein detected by Western blotting; both purified. Background: In western blotting, separated proteins are transferred to a membrane and probed.

No constants are given. Whether binding was seen depends on the method and setting. Tags and fused reporters may be left off the sequences shown.

For recombinant PP2A (enzyme), the binding result is on record as “no binding (tested: 2–10 μg)”.
